Drawing on US20260265357A1, this text covers binding for two molecules.

Results are given in words; binding and its absence hold for the method and conditions named. Some entries that bind do so weakly or less than the wild type.

The assay addresses cynomolgus ("cyno") NBL1 (cynomolgus). The assay is described as follows: ELISA, IgG1 format. On the technique in general: An ELISA detects its analyte on a solid surface through an enzyme-linked reagent.

B1: Antibody YU1019-A12 (antibody, V domains shown)
VH: EVQLLESGPGLVKPSQTLSLTCTVSGGSISSGDYYWSWIRQPPGKGLEWIGYIYYSGSTYYNPSLKSRVTISVDTSKNQFSLKLSSVTAADTAVYYCARGRRLLLFHWGQGTTVTVSS
VL: QSVLTQPPSVSAAPGQKVTISCSGSGSSIGNNYVSWYQQVPGTPPKLLIYDNNKRASGIPDRFSGSKSGTSATLGITGLQTGDEADYYCGTWDNSLSAVVFGGGTKLTVL
In the case of B1, the binding entry was “binds”.

B2: Antibody YU1018-D06 (antibody, V domains shown)
VH: QVQLVESGPGLVKPSQTLSLTCTVSGGSISSGGYYWSWIRQHPGKGLEWIGYIYYSGSTYYNPSLKSRVTISVDTSKNQFSLKLSSVTAADTAVYYCARSGAAGIPWFDPWGQGTLVTVSS
VL: QSVLTQPPSVSAAPGQKVTISCSGSSSNIGNNYVSWYQQLPGTAPKLLIYENNERPSGIPDRLSGSKSGTSATLAITGLQTGDEADYYCGTWDSSLSAVVFGGGTKLTVL
For B2, the binding entry was “binds”.
